PubChem BioAssay AID1053208 – Peter MacCallum Cancer Centre | 2014

Purpose: 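Genes whose silencing cuts survival of bone tumour cells only with doxorubicin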 (primary screen)
System: mouse osteosarcoma cells, early-passage culture from an engineered mouse model of fibroblastic bone tumour
Reagents: siRNA pool against mouse genes, 40 nM
Time to read-out: about 120 h (48 h before drug, then 72 h with drug)
Conditions: doxorubicin 100 nM for 72 h, roughly 30-40% inhibitory dose
Read-out: 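Luminescent ATP signal taken as viability with or without 100 nM doxorubicin for 72 h; mean of two wells set against non-targeting siRNA and turned into robust z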
Scale: viability z-score with doxorubicin: higher = more viable cells under doxorubicin; viability z-score without drug: higher = more viable cells with knock-down alone
Call rule: 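Called active if knock-down leaves viability unchanged without drug (z within -2 to 2) but lowers it with doxorubicin (z at or under -2)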
The deposit covers about 17,000 reagents; below is a random part of them. 788 of all reagents (4.7%) were called active. 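Calls rest on z-score classes alone; an extra cut-off of viability at most 70% of control was not applied to them.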 Not all columns of the deposit are shown.

gene symbol	combined z-score class	viability z-score with doxorubicin	viability z-score without drug	Call
Cenps (GeneID 69928)	no change with or without drug	0.11	-0.17	inactive
Nefl (GeneID 18039)	high cell count with doxorubicin only	2.14	-0.84	inactive
Ddx19a (GeneID 13680)	no change with or without drug	0	0.34	inactive
Amd1 (GeneID 11702)	no change with or without drug	0	-0.34	inactive
Rps21 (GeneID 66481)	low cell count with doxorubicin only	-2.92	-1.18	active
Mier3 (GeneID 218613)	no change with or without drug	-1.12	-0.51	inactive
Psg23 (GeneID 56868)	no change with or without drug	0.67	0.51	inactive
Optc (GeneID 269120)	high cell count without drug only	0.79	2.19	inactive
Grin3a (GeneID 242443)	no change with or without drug	1.12	-0.34	inactive
Fzd7 (GeneID 14369)	no change with or without drug	0.45	-0.17	inactive
A130010J15Rik (GeneID 319266)	no change with or without drug	-0.56	1.18	inactive
Serpinb10 (GeneID 241197)	no change with or without drug	0.56	0.17	inactive
Mcmbp (GeneID 210711)	no change with or without drug	-1.01	-1.18	inactive
Pak1 (GeneID 18479)	no change with or without drug	-0.34	-0.17	inactive
Smpdl3b (GeneID 100340)	high cell count with doxorubicin only	2.59	0.17	inactive
Plppr2 (GeneID 235044)	no change with or without drug	0.45	1.18	inactive
Csrnp1 (GeneID 215418)	no change with or without drug	-0.9	-1.01	inactive
Pou6f1 (GeneID 19009)	no change with or without drug	1.12	0.84	inactive
Runx3 (GeneID 12399)	no change with or without drug	-0.67	-0.51	inactive
Rpap1 (GeneID 68925)	no change with or without drug	0.11	0.84	inactive

Reformatted: results already given.
{"gene symbol":"Serpinb10 (GeneID 241197)","combined z-score class":"no change with or without drug","viability z-score with doxorubicin":0.56,"viability z-score without drug":0.17,"Call":"inactive"}
{"gene symbol":"Mcmbp (GeneID 210711)","combined z-score class":"no change with or without drug","viability z-score with doxorubicin":-1.01,"viability z-score without drug":-1.18,"Call":"inactive"}
